These are yes or no findings as the source states them, for the method shown. Binding seen in cells or lysates may run through a third protein. Binding can be weak; no strength is given.

Amino acid sequences for entries named in this document (tags omitted). A change or cut given only in a name is not applied to a line headed by its entry.
UniProt Q99996: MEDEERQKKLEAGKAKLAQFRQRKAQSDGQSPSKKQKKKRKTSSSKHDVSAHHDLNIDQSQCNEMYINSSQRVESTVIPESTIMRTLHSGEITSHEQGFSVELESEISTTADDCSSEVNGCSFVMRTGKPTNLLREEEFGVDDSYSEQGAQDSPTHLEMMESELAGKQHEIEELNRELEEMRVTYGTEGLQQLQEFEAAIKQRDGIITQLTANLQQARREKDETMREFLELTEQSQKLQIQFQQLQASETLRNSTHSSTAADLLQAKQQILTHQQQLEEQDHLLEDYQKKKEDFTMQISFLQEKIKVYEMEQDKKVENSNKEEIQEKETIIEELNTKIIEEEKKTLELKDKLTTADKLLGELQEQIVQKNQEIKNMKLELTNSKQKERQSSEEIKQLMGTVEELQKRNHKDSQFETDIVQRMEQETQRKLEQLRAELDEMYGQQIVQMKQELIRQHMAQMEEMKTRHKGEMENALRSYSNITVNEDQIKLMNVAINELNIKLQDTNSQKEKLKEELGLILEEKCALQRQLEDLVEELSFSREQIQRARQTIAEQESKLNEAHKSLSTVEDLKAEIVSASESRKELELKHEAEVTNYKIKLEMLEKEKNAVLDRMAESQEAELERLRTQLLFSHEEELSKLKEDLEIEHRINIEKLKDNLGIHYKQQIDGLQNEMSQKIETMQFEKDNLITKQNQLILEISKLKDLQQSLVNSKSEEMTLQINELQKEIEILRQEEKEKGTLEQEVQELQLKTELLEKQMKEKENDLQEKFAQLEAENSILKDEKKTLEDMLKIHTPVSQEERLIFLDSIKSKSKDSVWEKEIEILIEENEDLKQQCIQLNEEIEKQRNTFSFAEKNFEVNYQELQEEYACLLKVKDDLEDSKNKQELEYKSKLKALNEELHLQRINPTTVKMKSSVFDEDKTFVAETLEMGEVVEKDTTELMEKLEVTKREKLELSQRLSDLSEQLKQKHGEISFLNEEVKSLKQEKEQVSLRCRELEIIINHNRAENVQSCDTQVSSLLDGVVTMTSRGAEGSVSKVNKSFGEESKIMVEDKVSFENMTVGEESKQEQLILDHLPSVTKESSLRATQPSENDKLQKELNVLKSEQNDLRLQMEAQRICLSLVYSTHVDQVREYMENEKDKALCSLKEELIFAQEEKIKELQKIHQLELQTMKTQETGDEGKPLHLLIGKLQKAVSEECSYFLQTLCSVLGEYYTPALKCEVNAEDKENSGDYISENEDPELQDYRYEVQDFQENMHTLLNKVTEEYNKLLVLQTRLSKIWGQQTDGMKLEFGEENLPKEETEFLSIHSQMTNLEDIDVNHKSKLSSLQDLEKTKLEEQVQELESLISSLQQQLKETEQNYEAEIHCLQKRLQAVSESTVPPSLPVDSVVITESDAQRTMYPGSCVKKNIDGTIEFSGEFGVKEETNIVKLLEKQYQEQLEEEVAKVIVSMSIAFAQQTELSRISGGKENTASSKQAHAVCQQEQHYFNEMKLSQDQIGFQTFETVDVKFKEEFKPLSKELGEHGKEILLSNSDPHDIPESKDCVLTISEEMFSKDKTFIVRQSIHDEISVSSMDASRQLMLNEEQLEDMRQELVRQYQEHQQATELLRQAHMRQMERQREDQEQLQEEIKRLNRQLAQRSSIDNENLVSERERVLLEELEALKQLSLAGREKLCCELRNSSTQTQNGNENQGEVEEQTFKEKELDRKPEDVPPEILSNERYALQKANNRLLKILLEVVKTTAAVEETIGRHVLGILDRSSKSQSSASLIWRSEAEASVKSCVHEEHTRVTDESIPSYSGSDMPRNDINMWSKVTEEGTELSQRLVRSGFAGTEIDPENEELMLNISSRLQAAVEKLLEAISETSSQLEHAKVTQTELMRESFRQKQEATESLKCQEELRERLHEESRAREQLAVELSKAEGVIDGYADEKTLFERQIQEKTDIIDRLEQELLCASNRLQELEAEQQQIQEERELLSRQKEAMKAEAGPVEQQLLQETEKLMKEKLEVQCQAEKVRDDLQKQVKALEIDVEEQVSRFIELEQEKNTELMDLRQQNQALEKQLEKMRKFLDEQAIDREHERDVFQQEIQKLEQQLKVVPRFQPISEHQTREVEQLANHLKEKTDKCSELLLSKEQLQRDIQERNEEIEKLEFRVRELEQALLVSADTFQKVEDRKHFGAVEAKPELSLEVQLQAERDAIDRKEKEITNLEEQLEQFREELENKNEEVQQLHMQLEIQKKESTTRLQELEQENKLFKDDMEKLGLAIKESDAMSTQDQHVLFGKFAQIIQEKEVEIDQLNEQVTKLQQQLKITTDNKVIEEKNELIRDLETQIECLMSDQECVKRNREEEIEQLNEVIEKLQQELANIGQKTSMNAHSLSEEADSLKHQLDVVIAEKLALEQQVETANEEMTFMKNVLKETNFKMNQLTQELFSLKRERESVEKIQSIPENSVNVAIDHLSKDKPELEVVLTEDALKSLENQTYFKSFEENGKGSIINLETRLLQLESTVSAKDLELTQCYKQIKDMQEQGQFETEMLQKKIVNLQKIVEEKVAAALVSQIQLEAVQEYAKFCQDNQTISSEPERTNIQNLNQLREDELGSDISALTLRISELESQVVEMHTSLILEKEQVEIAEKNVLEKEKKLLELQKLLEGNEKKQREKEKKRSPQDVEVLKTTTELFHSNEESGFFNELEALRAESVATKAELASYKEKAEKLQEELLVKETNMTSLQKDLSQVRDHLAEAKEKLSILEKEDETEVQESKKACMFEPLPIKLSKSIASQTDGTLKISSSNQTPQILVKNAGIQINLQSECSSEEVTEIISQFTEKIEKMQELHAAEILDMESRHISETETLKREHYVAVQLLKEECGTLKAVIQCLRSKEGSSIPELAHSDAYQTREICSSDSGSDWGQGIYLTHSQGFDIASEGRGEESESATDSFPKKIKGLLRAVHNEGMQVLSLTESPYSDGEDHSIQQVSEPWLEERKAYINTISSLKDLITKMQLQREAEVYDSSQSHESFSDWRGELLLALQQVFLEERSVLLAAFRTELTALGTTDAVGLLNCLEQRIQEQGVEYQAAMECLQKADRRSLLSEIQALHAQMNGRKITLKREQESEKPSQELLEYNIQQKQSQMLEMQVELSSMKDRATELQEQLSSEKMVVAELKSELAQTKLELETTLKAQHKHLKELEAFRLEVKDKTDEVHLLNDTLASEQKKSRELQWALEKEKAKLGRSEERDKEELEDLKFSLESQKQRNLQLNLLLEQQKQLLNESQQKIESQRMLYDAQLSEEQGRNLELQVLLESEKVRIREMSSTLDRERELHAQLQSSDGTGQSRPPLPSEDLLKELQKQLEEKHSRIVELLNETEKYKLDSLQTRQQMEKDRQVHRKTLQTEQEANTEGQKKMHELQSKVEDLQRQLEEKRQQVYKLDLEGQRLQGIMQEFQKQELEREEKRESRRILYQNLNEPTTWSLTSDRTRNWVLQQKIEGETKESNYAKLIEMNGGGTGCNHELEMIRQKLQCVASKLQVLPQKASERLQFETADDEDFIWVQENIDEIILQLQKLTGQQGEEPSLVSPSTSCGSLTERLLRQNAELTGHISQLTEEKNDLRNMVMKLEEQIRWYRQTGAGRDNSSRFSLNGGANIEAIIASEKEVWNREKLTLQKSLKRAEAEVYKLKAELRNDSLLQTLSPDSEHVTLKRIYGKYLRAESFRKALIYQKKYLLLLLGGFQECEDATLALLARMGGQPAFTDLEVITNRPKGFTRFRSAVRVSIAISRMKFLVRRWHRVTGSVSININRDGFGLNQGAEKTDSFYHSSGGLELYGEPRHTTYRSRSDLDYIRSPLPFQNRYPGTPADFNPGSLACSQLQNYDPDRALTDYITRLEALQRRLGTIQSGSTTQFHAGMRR
UniProt P23258: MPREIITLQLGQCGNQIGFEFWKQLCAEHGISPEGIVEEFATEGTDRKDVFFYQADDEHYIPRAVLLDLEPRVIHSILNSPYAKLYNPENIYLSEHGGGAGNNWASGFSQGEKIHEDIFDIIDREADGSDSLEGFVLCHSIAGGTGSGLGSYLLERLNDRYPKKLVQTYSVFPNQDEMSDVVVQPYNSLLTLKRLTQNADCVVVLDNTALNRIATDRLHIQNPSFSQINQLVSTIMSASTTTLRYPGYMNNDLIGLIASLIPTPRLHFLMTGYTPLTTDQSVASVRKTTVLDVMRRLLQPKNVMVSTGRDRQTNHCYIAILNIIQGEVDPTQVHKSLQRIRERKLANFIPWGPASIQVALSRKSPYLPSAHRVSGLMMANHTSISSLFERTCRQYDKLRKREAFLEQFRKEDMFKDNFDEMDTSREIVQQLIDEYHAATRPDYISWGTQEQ

One substance from article doi:10.1101/153304 can be followed below.

For the assay, the target named is AKAP450 (human (endogenous in hTERT-RPE1 or HeLa; cell line of the co-IP not stated)) (UniProt Q99996). Briefly: co-IP.

As for γ-tubulin (from UniProt P23258), the binding entry is listed as “binds”.
